Reference: paper PMC7708074

By UniProt entry, the sequences of proteins in these tests, tags left out.
UniProt P15646: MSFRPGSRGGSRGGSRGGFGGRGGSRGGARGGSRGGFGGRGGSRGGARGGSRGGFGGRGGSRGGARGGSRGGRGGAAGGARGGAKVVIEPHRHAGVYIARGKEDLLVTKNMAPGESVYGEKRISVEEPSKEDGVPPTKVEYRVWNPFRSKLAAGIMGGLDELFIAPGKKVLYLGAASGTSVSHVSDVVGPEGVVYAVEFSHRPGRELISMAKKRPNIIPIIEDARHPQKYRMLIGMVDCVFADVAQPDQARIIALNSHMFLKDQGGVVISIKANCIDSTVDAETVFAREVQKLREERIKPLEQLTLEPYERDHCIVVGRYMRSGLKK

T1: green fluorescent protein-tagged Rbs1 (S. cerevisiae) (UniProt Q05672)
T1 sequence: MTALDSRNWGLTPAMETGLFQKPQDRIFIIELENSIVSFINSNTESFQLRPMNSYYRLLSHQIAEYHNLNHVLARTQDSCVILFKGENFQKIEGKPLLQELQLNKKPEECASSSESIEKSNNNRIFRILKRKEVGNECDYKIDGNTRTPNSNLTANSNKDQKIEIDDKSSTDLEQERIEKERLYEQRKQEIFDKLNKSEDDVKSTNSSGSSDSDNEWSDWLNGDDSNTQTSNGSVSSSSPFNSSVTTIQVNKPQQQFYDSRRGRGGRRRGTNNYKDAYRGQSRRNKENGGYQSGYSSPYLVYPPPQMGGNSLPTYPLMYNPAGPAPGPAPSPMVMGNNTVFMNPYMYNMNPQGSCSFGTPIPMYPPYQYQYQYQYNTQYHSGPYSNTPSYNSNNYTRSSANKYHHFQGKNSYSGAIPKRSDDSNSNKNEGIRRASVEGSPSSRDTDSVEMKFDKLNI

B1: Nop6 (protein, UniProt Q07623 1-225)
chain: MGSEEDKKLTKKQLKAQQFRKSKEEKDQEKDVKKEQAPEGKRPNSAAGNDGEEPVKKKRKTRRGRGGKGKNGKKGNRFIVFVGSLPRDITAVELQNHFKNSSPDQIRLRADKGIAFLEFDADKDRTGIQRRMDIALLQHGTLLKEKKINVELTVGGGGNSQERLEKLKNKNIKLDEERKERLTKMINDGNQKKIAKTTATAAQTSGTDNKPVPAGIHPDRAKLLK
B2: Upf1 (endogenous, co-purified with tagged Rbs1) (protein, UniProt P30771 1-971)
chain: MVGSGSHTPYDISNSPSDVNVQPATQLNSTLVEDDDVDNQLFEEAQVTETGFRSPSASDNSCAYCGIDSAKCVIKCNSCKKWFCNTKNGTSSSHIVNHLVLSHHNVVSLHPDSDLGDTVLECYNCGRKNVFLLGFVSAKSEAVVVLLCRIPCAQTKNANWDTDQWQPLIEDRQLLSWVAEQPTEEEKLKARLITPSQISKLEAKWRSNKDATINDIDAPEEQEAIPPLLLRYQDAYEYQRSYGPLIKLEADYDKQLKESQALEHISVSWSLALNNRHLASFTLSTFESNELKVAIGDEMILWYSGMQHPDWEGRGYIVRLPNSFQDTFTLELKPSKTPPPTHLTTGFTAEFIWKGTSYDRMQDALKKFAIDKKSISGYLYYKILGHQVVDISFDVPLPKEFSIPNFAQLNSSQSNAVSHVLQRPLSLIQGPPGTGKTVTSATIVYHLSKIHKDRILVCAPSNVAVDHLAAKLRDLGLKVVRLTAKSREDVESSVSNLALHNLVGRGAKGELKNLLKLKDEVGELSASDTKRFVKLVRKTEAEILNKADVVCCTCVGAGDKRLDTKFRTVLIDESTQASEPECLIPIVKGAKQVILVGDHQQLGPVILERKAADAGLKQSLFERLISLGHVPIRLEVQYRMNPYLSEFPSNMFYEGSLQNGVTIEQRTVPNSKFPWPIRGIPMMFWANYGREEISANGTSFLNRIEAMNCERIITKLFRDGVKPEQIGVITPYEGQRAYILQYMQMNGSLDKDLYIKVEVASVDAFQGREKDYIILSCVRANEQQAIGFLRDPRRLNVGLTRAKYGLVILGNPRSLARNTLWNHLLIHFREKGCLVEGTLDNLQLCTVQLVRPQPRKTERPMNAQFNVESEMGDFPKFQDFDAQSMVSFSGQIGDFGNAFVDNTELSSYINNEYWNFENFKSAFSQKQNRNEIDDRNLYQEEASHLNSNFARELQREEQKHELSKDFSNLGI

target: T1, green fluorescent protein-tagged Rbs1 (S. cerevisiae); assay: affinity purification with mass spectrometry; affinity purification of green fluorescent protein-tagged Rbs1 followed by quantitative mass spectrometry; relative amounts by MaxQuant (data of ref. 11)

binding | Molecule
binds | Nop1 (from UniProt P15646 1-327)
binds | B1
binds | B2

No constants are given. Whether binding was seen depends on the method and setting. Binding seen in cells or lysates may run through a third protein. These calls come from enrichment with a bait or labelling near it, and not all partners need be listed. Where a sequence is shown, tags or fusion partners need not be part of it.
